Test results as given in article PMC10191625.
No constants are given. Whether binding was seen depends on the method and setting. Binding seen in cells or lysates may run through a third protein. Tags and fused reporters may be left off the sequences shown.

By UniProt entry, the sequences of proteins in these tests, tags left out. Where a name states a change or a piece, a line headed by the entry shows the natural chain unless it says otherwise.
UniProt Q01371: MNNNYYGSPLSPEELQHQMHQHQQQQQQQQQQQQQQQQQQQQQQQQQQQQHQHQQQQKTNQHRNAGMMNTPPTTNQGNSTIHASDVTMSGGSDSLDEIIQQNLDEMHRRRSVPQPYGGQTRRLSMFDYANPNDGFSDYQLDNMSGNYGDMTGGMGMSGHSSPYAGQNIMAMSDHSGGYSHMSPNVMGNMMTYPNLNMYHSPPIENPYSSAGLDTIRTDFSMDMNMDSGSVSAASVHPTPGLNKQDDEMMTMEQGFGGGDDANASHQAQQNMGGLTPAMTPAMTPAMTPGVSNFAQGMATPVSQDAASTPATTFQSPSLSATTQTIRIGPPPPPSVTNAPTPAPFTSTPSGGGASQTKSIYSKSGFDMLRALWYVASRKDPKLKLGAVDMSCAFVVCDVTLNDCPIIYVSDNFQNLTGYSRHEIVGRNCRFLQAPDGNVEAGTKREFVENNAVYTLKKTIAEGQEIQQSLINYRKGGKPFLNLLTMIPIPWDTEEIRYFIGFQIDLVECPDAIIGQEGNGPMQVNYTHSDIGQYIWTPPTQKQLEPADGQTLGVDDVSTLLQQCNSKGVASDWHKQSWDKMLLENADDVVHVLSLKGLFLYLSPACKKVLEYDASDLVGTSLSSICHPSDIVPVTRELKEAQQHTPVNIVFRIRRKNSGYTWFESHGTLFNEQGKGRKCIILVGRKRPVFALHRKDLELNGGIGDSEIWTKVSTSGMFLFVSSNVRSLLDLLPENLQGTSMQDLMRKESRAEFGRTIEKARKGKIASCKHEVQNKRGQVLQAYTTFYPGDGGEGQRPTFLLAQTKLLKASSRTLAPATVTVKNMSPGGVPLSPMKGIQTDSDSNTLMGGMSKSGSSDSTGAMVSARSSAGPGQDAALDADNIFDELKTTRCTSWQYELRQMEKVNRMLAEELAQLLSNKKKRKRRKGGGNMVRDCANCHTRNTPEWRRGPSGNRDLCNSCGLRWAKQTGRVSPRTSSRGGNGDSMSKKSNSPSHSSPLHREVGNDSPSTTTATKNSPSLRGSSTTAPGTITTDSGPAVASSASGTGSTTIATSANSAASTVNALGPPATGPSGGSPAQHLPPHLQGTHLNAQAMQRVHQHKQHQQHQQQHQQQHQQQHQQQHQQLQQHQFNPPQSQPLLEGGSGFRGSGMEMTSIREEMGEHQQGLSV

Target: T1, Myc.CPC-1 (Neurospora crassa) (UniProt P11115)
T1 sequence: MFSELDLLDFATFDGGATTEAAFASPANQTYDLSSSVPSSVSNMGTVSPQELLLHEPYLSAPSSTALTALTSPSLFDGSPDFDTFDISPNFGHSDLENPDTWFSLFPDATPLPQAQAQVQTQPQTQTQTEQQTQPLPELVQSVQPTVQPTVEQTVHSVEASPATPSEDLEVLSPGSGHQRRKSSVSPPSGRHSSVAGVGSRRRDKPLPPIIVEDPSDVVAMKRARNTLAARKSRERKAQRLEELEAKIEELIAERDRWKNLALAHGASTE
Experiment: co-IP; Myc-tagged protein expressed in the WT strain; immunoprecipitation with Myc antibody, GammaBind G Sepharose, 2 mg protein extract; cultures in constant light; blots for endogenous WC-1 and WC-2

binding: no binding
Substance: White Collar complex (WC-1 and WC-2) (from UniProt Q01371 1-1167; P78714 1-530)
